Measurements reported in PubChem BioAssay AID504764 (Drosophila RNAi Screening Center, 2011).
Purpose: 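Genome-wide screen for regulators of Notch-driven gene expression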 (primary screen). Cells: Drosophila Kc167 cells. Knock-down reagent: long dsRNA against Drosophila genes. Timing: about 5 days (4 days dsRNA, then 24 h after transfection). Conditions: transfection of constitutively active membrane-tethered Notch lacking the extracellular domain, read 24 h later. Detection: 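Light from a Notch-responsive E(spl)m3 luciferase reporter under active Notch, with control-promoter and no-Notch reporter wells to normalise; raw counts from paired wells a and b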. Reading the numbers: induced reporter light, run 1, well a and induced reporter light, run 1, well b: higher = more light from the Notch target reporter with active Notch; control promoter light, run 1, well a and control promoter light, run 1, well b: higher = more light from the viral control promoter (cell number, transfection, viability); uninduced reporter light, run 1, well a: higher = more light from the Notch target reporter without active Notch. Active means: 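Hit if the duplicate-averaged log2 ratio of induced to control-promoter light gives a plate-wise z beyond ±2, or induced to uninduced beyond ±1.8; weak-control or discordant-duplicate wells dropped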. Calls: active = modifier hit (raised or lowered Notch signal); inactive = not a hit.
In all, the deposit lists about 22,000 reagents; below is a random part of those that have a named target and a result. In the full data, 403 (1.9%) were called active. 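Unnormalised raw counts per well; ratio z-scores behind the hit calls and whether each hit raises or lowers signal are not deposited.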 Reagent sequences are not shown. Not given: the amount of reagent.

With CG13577 (GeneID 37885) [DRSC04213], what does the deposit list?
induced reporter light, run 1, well a: 1.81e5; induced reporter light, run 1, well b: 1.75e5; control promoter light, run 1, well a: 1.40e5; control promoter light, run 1, well b: 1.65e5; uninduced reporter light, run 1, well a: 13095; Outcome: inactive

With escl (GeneID 34611) [DRSC02828], what does the deposit list?
induced reporter light, run 1, well a: 3.05e5; induced reporter light, run 1, well b: 2.88e5; control promoter light, run 1, well a: 2.75e5; control promoter light, run 1, well b: 2.61e5; uninduced reporter light, run 1, well a: 20545; Outcome: inactive

How did the screen score CG6149 (GeneID 39277) [DRSC10593]?
induced reporter light, run 1, well a: 1.89e5; induced reporter light, run 1, well b: 1.25e5; control promoter light, run 1, well a: 2.30e5; control promoter light, run 1, well b: 1.99e5; uninduced reporter light, run 1, well a: 8500; Outcome: inactive

How did the screen score CG10953 (GeneID 36941) [DRSC06021]?
induced reporter light, run 1, well a: 1.25e5; induced reporter light, run 1, well b: 1.04e5; control promoter light, run 1, well a: 1.85e5; control promoter light, run 1, well b: 1.79e5; uninduced reporter light, run 1, well a: 10715; Outcome: inactive

With Pep (GeneID 45961) [DRSC11252], what does the deposit list?
induced reporter light, run 1, well a: 1.36e5; induced reporter light, run 1, well b: 1.60e5; control promoter light, run 1, well a: 86200; control promoter light, run 1, well b: 98025; uninduced reporter light, run 1, well a: 11085; Outcome: inactive

What did the screen give for Atf-2 (GeneID 37978) [DRSC04130]?
induced reporter light, run 1, well a: 2.07e5; induced reporter light, run 1, well b: 2.20e5; control promoter light, run 1, well a: 1.87e5; control promoter light, run 1, well b: 1.72e5; uninduced reporter light, run 1, well a: 14795; Outcome: inactive

Which result is listed for Atf-2 (GeneID 37978) [DRSC04413]?
induced reporter light, run 1, well a: 2.02e5; induced reporter light, run 1, well b: 1.89e5; control promoter light, run 1, well a: 3.16e5; control promoter light, run 1, well b: 3.02e5; uninduced reporter light, run 1, well a: 12465; Outcome: inactive

With Cph (GeneID 31660) [DRSC17507], what was measured?
induced reporter light, run 1, well a: 66400; induced reporter light, run 1, well b: 72070; control promoter light, run 1, well a: 65875; control promoter light, run 1, well b: 68445; uninduced reporter light, run 1, well a: 5375; Outcome: inactive

What is on record for Cph (GeneID 31660) [DRSC18434]?
induced reporter light, run 1, well a: 79525; induced reporter light, run 1, well b: 82340; control promoter light, run 1, well a: 1.43e5; control promoter light, run 1, well b: 1.23e5; uninduced reporter light, run 1, well a: 7750; Outcome: inactive

Which result is listed for CG4424 (GeneID 42390) [DRSC15576]?
induced reporter light, run 1, well a: 1.55e5; induced reporter light, run 1, well b: 1.65e5; control promoter light, run 1, well a: 2.00e5; control promoter light, run 1, well b: 2.28e5; uninduced reporter light, run 1, well a: 14688; Outcome: inactive

For ATPsyndelta (GeneID 31950) [DRSC18248], what was measured?
induced reporter light, run 1, well a: 67655; induced reporter light, run 1, well b: 66725; control promoter light, run 1, well a: 92280; control promoter light, run 1, well b: 1.32e5; uninduced reporter light, run 1, well a: 5432; Outcome: inactive

With CSN1a (GeneID 34857) [DRSC01951], what was measured?
induced reporter light, run 1, well a: 1.04e5; induced reporter light, run 1, well b: 1.13e5; control promoter light, run 1, well a: 1.23e5; control promoter light, run 1, well b: 1.31e5; uninduced reporter light, run 1, well a: 11040; Outcome: inactive

Part of the list above, reformatted.
Target gene | dsRNA | induced reporter light, run 1, well a | induced reporter light, run 1, well b | control promoter light, run 1, well a | control promoter light, run 1, well b | uninduced reporter light, run 1, well a | Outcome
CG10953 (GeneID 36941) | DRSC06021 | 1.25e5 | 1.04e5 | 1.85e5 | 1.79e5 | 10715 | inactive
Pep (GeneID 45961) | DRSC11252 | 1.36e5 | 1.60e5 | 86200 | 98025 | 11085 | inactive
